Reference: paper PMC12442624
No constants are given. Whether binding was seen depends on the method and setting. In cells and extracts the contact can be indirect. Some entries that bind do so weakly or less than the wild type. One block for each molecule: values may come before it.

Chains of the proteins cited; added tags and fusions are not shown.
UniProt P39688: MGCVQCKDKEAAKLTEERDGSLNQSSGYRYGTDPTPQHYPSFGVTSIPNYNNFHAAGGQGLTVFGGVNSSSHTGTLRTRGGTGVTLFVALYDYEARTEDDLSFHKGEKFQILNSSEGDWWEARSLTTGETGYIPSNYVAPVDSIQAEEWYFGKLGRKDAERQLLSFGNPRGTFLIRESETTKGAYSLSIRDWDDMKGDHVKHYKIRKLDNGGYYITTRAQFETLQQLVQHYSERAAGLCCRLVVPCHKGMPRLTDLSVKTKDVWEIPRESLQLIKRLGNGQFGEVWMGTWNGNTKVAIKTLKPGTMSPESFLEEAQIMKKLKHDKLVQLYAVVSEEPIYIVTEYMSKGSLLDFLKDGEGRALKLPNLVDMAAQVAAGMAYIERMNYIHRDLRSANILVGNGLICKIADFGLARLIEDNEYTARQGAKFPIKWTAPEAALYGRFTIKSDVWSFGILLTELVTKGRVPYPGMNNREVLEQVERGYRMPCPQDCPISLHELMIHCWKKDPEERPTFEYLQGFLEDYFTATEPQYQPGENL

Experiments:
[1] = biological target: T1, Kir4.1 protein (kcnj10-encoded inwardly rectifying potassium channel) (mouse (endogenous in OPCs)) (UniProt Q9JM63); test: co-IP; reciprocal co-immunoprecipitation of endogenous proteins in OPCs; no further conditions told
T1 sequence: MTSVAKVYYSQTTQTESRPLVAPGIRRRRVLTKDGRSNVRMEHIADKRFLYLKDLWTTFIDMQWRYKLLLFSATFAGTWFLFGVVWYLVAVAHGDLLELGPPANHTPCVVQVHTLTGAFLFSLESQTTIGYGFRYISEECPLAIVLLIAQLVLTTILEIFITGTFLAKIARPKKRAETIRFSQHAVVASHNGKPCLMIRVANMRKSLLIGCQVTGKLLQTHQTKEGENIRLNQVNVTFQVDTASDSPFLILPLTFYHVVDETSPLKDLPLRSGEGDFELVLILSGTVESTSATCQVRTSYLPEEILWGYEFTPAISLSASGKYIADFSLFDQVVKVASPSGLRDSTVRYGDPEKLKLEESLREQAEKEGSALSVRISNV

[2] = biological target: FYN tyrosine kinase (mouse (endogenous in OPCs)) (UniProt P39688); test: as above

binding [1]: binds
Molecule: FYN tyrosine kinase (from UniProt P39688 1-537)

binding [2]: binds
B1: Kir4.1 protein (kcnj10-encoded inwardly rectifying potassium channel) (protein, UniProt Q9JM63 1-379)
chain: T1 sequence
